According to the supplement of paper PMC8728848:
Some of the results follow.

How the values were obtained:
Experiment in all cases: glycan array binding signal (z-score within array); higher = stronger binding
Details in all cases: glycan notation: IUPAC condensed, linker removed
[1] = molecular target: Neu5Ac(a2-3)Gal(b1-4)GlcNAc(b1-6)GalNAc
Summary of the method: (§1)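 The binding signal is a Z-score computed within each array and averaged over linkers. Arrays of the same protein sequence at different concentrations or buffers were also averaged together. Data originate from 3228 arrays in the Consortium for Functional Glycomics database, kept only where the protein sequence was available.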

[2] = molecular target: Neu5Ac(a2-3)Gal(b1-4)GlcNAc(b1-6)[Gal(b1-3)]GalNAc
Summary of the method: as §1

[3] = molecular target: Neu5Ac(a2-3)Gal(b1-4)GlcNAc(b1-6)[Neu5Ac(a2-3)Gal(b1-3)]GalNAc
Summary of the method: as §1

[4] = molecular target: Neu5Ac(a2-3)Gal(b1-4)GlcNAc6S
Summary of the method: as §1

[5] = molecular target: Neu5Ac(a2-3)Gal(b1-4)[Fuc(a1-3)]GlcNAc
Summary of the method: as §1

[6] = molecular target: Neu5Ac(a2-3)Gal(b1-4)[Fuc(a1-3)]GlcNAc(b1-2)Man
Summary of the method: as §1

[7] = molecular target: Neu5Ac(a2-3)Gal(b1-4)[Fuc(a1-3)]GlcNAc(b1-3)Gal
Summary of the method: as §1

[8] = molecular target: Neu5Ac(a2-3)Gal(b1-4)[Fuc(a1-3)]GlcNAc(b1-3)Gal(b1-4)GlcNAc
Summary of the method: as §1

[9] = molecular target: Neu5Ac(a2-3)Gal(b1-4)[Fuc(a1-3)]GlcNAc(b1-3)Gal(b1-4)[Fuc(a1-3)]GlcNAc(b1-3)Gal(b1-4)[Fuc(a1-3)]GlcNAc
Summary of the method: as §1

[10] = molecular target: Neu5Ac(a2-3)Gal(b1-4)[Fuc(a1-3)]GlcNAc(b1-3)GalNAc
Summary of the method: as §1

[11] = molecular target: Neu5Ac(a2-3)Gal(b1-4)[Fuc(a1-3)]GlcNAc(b1-6)[Gal(b1-3)]GalNAc
Summary of the method: as §1

[12] = molecular target: Neu5Ac(a2-3)Gal(b1-4)[Fuc(a1-3)]GlcNAc(b1-6)[Neu5Ac(a2-3)Gal(b1-3)]GalNAc
Summary of the method: as §1

[13] = molecular target: Neu5Ac(a2-3)Gal(b1-4)[Fuc(a1-3)]GlcNAc6S
Summary of the method: as §1

[14] = molecular target: Neu5Ac(a2-3)Gal6S(b1-4)GlcNAc
Summary of the method: as §1

[15] = molecular target: Neu5Ac(a2-3)Gal6S(b1-4)[Fuc(a1-3)]GlcNAc
Summary of the method: as §1

Neu5Ac(a2-3)GalNAc = molecular target: Neu5Ac(a2-3)GalNAc
Summary of the method: as §1

[16] = molecular target: Neu5Ac(a2-3)GalNAc(b1-4)GlcNAc
Summary of the method: as §1

[17] = molecular target: Neu5Ac(a2-3)[GalNAc(b1-4)]Gal(b1-4)Glc
Summary of the method: as §1

[18] = molecular target: Neu5Ac(a2-3)[GalNAc(b1-4)]Gal(b1-4)GlcNAc
Summary of the method: as §1

[19] = molecular target: Neu5Ac(a2-3)[GalNAc(b1-4)]Gal(b1-4)GlcNAc(b1-3)GalNAc
Summary of the method: as §1

[20] = molecular target: Neu5Ac(a2-3)[Neu5Ac(a2-6)]GalNAc
Summary of the method: as §1

Neu5Ac(a2-6)Gal = molecular target: Neu5Ac(a2-6)Gal
Summary of the method: as §1

B1: Lb MiSSP8 (Laccaria bicolor) (protein)
chain: MYFHTLFACATLMLITTAHASPTVINSLDSRKADLNGDVEARHAADWRRDSDWRRDSDWRRDSDWRRDSD
[1]
  glycan array binding signal (z-score): -0.751
[2]
  glycan array binding signal (z-score): 3.01
[3]
  glycan array binding signal (z-score): -0.764
[4]
  glycan array binding signal (z-score): -0.702
[5]
  glycan array binding signal (z-score): -0.902
[6]
  glycan array binding signal (z-score): -0.827
[7]
  glycan array binding signal (z-score): -1.12
[8]
  glycan array binding signal (z-score): 1.91
[9]
  glycan array binding signal (z-score): 0.361
[10]
  glycan array binding signal (z-score): 2.11
[11]
  glycan array binding signal (z-score): 1.41
[12]
  glycan array binding signal (z-score): 1.07
[13]
  glycan array binding signal (z-score): -0.84
[14]
  glycan array binding signal (z-score): -1.06
[15]
  glycan array binding signal (z-score): -0.682
Neu5Ac(a2-3)GalNAc
  glycan array binding signal (z-score): 1.65
[16]
  glycan array binding signal (z-score): -0.316
[17]
  glycan array binding signal (z-score): -0.827
[18]
  glycan array binding signal (z-score): -0.778
[19]
  glycan array binding signal (z-score): -0.557
[20]
  glycan array binding signal (z-score): 1.96
Neu5Ac(a2-6)Gal
  glycan array binding signal (z-score): -0.405
